Reference: patent US20060084085A1, “Methods and compositions for modulating Bax-mediated apoptosis” (priority 2004, published 2006)
No constants are given. Whether binding was seen depends on the method and setting. In cells and extracts the contact can be indirect. Some results given as binding are weak or reduced against the parent protein; the word gives no strength.

Sequences of proteins named here, by UniProt entry; tags and fusion partners are left off. A change or cut given only in a name is not applied to a line headed by its entry.
UniProt P12956: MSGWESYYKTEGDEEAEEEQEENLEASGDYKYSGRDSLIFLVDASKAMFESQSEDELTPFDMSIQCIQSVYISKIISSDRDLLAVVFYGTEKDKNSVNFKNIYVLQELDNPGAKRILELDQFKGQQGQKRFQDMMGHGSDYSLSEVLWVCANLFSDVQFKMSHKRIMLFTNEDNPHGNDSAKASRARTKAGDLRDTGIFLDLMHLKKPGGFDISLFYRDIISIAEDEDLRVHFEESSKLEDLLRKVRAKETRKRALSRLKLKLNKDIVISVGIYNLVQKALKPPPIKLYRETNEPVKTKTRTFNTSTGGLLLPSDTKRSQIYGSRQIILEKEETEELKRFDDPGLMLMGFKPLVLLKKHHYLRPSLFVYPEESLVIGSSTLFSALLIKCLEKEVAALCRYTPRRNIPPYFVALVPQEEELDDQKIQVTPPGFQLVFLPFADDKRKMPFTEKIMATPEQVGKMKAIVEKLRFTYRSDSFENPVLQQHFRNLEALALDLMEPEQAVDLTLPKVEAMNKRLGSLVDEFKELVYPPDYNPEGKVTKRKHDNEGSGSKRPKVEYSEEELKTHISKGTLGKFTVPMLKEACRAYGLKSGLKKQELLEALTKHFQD
UniProt Q07812: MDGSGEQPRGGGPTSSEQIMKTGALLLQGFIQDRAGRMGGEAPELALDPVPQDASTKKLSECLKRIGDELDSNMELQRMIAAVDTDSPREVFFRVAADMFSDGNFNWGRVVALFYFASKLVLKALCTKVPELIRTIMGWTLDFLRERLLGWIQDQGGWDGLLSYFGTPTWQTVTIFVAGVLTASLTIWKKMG
UniProt Q92793: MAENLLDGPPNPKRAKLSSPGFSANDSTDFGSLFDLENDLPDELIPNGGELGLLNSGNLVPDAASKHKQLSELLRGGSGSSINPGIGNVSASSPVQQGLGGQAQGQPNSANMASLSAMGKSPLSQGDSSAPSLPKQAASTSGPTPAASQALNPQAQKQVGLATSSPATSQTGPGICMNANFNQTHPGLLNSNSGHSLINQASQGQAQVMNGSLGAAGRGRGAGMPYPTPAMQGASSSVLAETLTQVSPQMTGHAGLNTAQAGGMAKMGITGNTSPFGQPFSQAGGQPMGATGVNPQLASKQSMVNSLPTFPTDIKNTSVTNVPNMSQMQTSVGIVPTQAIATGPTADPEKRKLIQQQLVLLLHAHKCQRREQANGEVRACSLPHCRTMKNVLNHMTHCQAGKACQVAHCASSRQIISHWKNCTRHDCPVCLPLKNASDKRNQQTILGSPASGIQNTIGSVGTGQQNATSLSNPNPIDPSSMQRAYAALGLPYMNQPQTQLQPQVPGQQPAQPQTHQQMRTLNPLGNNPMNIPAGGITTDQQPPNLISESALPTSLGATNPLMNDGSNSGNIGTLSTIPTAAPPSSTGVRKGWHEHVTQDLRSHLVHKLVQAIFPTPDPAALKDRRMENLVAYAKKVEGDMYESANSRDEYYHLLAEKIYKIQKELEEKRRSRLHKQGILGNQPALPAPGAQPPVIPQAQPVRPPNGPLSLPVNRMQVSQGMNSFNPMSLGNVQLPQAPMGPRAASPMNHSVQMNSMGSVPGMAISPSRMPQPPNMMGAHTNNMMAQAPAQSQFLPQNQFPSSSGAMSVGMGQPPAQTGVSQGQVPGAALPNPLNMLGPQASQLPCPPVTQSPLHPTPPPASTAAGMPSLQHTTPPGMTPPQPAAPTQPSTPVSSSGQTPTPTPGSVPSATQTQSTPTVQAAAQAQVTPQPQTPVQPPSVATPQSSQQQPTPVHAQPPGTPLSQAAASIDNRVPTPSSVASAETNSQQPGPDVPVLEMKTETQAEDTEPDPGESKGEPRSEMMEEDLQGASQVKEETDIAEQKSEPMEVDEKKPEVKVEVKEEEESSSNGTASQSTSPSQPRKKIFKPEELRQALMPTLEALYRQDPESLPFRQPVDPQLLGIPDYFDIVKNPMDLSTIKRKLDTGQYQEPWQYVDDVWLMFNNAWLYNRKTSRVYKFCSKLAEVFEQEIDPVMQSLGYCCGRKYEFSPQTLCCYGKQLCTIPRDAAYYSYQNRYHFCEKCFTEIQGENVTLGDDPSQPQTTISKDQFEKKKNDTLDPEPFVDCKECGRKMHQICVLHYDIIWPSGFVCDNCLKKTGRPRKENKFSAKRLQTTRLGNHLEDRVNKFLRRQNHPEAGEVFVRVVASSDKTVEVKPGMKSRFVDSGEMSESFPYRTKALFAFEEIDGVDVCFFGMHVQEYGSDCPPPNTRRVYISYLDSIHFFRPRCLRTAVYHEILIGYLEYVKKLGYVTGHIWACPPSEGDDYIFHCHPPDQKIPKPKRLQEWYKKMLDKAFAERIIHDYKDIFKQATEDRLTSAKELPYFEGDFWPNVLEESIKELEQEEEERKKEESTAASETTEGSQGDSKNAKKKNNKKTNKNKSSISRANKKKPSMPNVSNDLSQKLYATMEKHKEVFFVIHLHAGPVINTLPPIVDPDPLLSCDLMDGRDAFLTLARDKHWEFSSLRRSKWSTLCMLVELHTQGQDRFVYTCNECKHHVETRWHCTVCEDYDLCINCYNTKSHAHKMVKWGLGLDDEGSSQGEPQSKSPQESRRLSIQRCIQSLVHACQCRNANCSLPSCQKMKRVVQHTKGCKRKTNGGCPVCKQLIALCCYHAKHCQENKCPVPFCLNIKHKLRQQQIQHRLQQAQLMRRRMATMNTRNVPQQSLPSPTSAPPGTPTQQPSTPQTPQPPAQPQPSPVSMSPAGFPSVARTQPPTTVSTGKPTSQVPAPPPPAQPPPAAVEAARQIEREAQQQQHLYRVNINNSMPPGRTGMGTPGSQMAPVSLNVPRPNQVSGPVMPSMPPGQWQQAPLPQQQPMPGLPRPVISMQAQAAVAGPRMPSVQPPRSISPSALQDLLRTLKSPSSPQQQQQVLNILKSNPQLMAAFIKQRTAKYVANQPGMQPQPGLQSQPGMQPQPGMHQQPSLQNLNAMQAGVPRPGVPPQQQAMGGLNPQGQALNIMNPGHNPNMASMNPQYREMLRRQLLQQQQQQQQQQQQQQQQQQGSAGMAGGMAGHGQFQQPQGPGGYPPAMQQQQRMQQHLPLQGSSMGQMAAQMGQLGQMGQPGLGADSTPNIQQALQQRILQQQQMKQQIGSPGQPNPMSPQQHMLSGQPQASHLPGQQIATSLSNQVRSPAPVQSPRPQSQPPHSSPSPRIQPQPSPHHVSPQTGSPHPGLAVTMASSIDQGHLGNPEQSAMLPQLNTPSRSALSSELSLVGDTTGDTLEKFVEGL
UniProt Q92831: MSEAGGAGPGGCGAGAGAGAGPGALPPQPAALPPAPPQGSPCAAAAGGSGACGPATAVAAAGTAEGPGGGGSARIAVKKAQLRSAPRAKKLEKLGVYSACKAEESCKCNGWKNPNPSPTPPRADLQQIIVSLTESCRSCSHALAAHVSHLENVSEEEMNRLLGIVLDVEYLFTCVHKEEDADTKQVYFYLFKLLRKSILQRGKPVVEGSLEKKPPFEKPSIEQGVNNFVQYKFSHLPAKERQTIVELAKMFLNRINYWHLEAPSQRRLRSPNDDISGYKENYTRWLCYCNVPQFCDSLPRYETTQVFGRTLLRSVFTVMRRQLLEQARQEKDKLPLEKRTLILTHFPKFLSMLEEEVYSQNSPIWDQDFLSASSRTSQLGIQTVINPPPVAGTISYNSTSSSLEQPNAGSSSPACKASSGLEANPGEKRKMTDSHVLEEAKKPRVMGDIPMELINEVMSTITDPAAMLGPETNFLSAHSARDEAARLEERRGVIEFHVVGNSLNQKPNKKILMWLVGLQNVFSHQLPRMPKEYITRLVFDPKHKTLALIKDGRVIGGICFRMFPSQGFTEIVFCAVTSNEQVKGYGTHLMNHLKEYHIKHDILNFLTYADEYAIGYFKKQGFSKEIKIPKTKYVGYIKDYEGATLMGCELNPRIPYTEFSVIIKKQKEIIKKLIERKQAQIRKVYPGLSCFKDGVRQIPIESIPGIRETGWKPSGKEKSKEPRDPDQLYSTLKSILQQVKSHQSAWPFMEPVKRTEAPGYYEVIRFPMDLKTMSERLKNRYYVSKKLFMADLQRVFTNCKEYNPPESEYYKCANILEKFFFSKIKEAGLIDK

Tests used:
[1] = target: human Ku70 (wild-type, full-length) (human) (UniProt P12956); assay: co-immunoprecipitation, retold
[2] = target: human Ku70 (wild-type, full-length) (human) (UniProt P12956); assay: co-immunoprecipitation, summary of results
[3] = target: human Ku70 (wild-type, full-length) (human) (UniProt P12956); assay: co-immunoprecipitation from HeLa or 293 cells; not disrupted by ethidium bromide (50 µg/ml)
[4] = target: Bax (Bcl-2 Associated X protein) (human) (UniProt Q07812); assay: co-immunoprecipitation and reverse IP from 293T cells
[5] = target: Bax (Bcl-2 Associated X protein) (human) (UniProt Q07812); assay: co-immunoprecipitation of endogenous Ku70 and Bax from 293T cells in Chaps buffer (DMSO control)
[6] = target: human Ku70 (wild-type, full-length) (human) (UniProt P12956); assay: co-immunoprecipitation from HeLa or 293 cells

Row | binding [1] | binding [2] | binding [3] | binding [4] | binding [5] | binding [6] | Substance
1 | binds | binds | binds |  |  |  | human CREB-binding protein (CBP) (from UniProt Q92793 1-2442) (enzyme)
2 |  |  |  | binds | binds |  | human Ku70 (wild-type, full-length) (from UniProt P12956 1-609)
3 |  | binds |  |  |  | binds | human p300/CBP-associated factor (PCAF) (from UniProt Q92831 1-832) (enzyme)
